According to PubChem BioAssay AID278 (DTP/NCI, 2004):
The list does not hold the whole screen: it gathers tests that were run many times, whatever their T/C, doses with no T/C, and many T/C values between a quarter and a half above the control. Further doses and runs are listed elsewhere. T/C is the treated group as % of the vehicle group. Schedule codes are those of the source, read here as Q, the interval in days (D) or hours (H), X, the number of doses. Some T/C values carry the count of animals alive at the toxicity check (mostly the fifth day); where none is given, no animal had died by that day. Some entries were tested several times; their values stand side by side, smallest first. Some values lie below zero, which means that the treated tumours became smaller. Some entries give survivors of the animals treated and no T/C: the source holds a T/C of zero for them, seemingly a mark for toxic or unscored doses. Survivors were counted at the toxicity check, usually on the fifth day, unless a day is given; later deaths do not show.

Tested on: nude mice, A549 intrarenal xenograft, tumor weight change
Assay: NCI In Vivo Anticancer Drug Screen. Data for tumor model A549 Human Adenocarcinoma of Lung with characteristics of Type II Alveolar Epithelial cells (intrarenal inoculation) in NU/NU BALB/C (nude) mice
Details: T/C endpoint: mean tumor weight change, schedule: Q04DX003 (ip), higher T/C = larger tumour; for T/C: evaluated on day 12
Method in brief: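 Activity is expressed as T/C: the treated-group value over the vehicle-treated control value. The measure was survival or tumor size in mice carrying transplantable tumors.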

[1] = dose: 75.0 mg/kg/injection, vehicle: saline
[2] = dose: 112.0 mg/kg/injection, vehicle: saline
[3] = dose: 400.0 mg/kg/injection, vehicle: saline
[4] = dose: 600.0 mg/kg/injection, vehicle: saline with Tween-80
[5] = dose: 1200.0 mg/kg/injection, vehicle: saline with Tween-80
[6] = dose: 100.0 mg/kg/injection, vehicle: Klucel (hydroxypropylcellulose) (HPC)
[7] = dose: 300.0 mg/kg/injection, vehicle: saline

In the case of `O=c1[nH]cc(F)c(=O)[nH]1`, the T/C (dose: 50.0 mg/kg/injection, vehicle: saline) is reported as 20 [4 of 5 alive on day 12], 35, 37, 51, 63 % of control [5 of 6 alive on day 12], the T/C [1] is reported as 12, 16, 20 % of control [4 of 6 alive on day 12] and the survivor count [1] is reported as 3 of 6 on day 12. For the same compound, the T/C [2] was 20 % of control [4 of 6 alive on day 12] and the survivor count [2] was 1 of 6 on day 12 and 3 of 6 on day 12.
With `COc1ccc(C=C(C(=O)CCN(C)C)C(=O)CCN(C)C)cc1` the T/C (dose: 100.0 mg/kg/injection, vehicle: saline) was 125 % of control and the survivor count [3] was 0 of 6 on day 12.
With `CCOc1ccc(-c2nc3ccc(-c4nc5ccc(N6CCN(C)CC6)cc5[nH]4)cc3[nH]2)cc1` the T/C (dose: 12.5 mg/kg/injection, vehicle: saline) was 139 % of control.
For `CCN(CC)c1ccc2[nH]c3c(C(N)=O)cc(=O)c(=O)c=3oc2c1`, the survivor count [4] was 0 of 6 on day 12 and the survivor count [5] was 0 of 6 on day 12.
With `Cc1ccc(C(=O)NC2C(=O)NC(C(C)C)C(=O)N3CCCC3C(=O)N(C)CC(=O)N(C)C(C(C)C)C(=O)OC2C)c2c1Oc1c(c(C(=O)NC3C(=O)NC(C(C)C)C(=O)N4CCCC4C(=O)N(C)CC(=O)N(C)C(C(C)C)C(=O)OC3C)c3nc(-c4ccccc4)c(=O)oc3c1C)N2` (configuration not stated) the survivor count (dose: 2.0 mg/kg/injection, vehicle: water) was 1 of 6 on day 12 and the survivor count (dose: 4.0 mg/kg/injection, vehicle: water) was 1 of 6 on day 12.
With `COC1=C(C)C(=O)C2=C(C1=O)C(CO)N1C(C#N)C3CC4C(C1C2N1CCOC41)N3C` (configuration not stated) the survivor count (dose: 5.0 mg/kg/injection, vehicle: saline + alcohol) was 0 of 6 on day 12 and the survivor count (dose: 10.0 mg/kg/injection, vehicle: saline + alcohol) was 0 of 6 on day 12.
With `O=NN(CCCl)C(=O)NCCCl` the T/C (dose: 12.0 mg/kg/injection, vehicle: saline + alcohol) was -19, 3, 7, 30, 52 [5 of 6 alive on day 12], 68 % of control [5 of 6 alive on day 12], the T/C (dose: 18.0 mg/kg/injection, vehicle: saline + alcohol) was 2 [5 of 6 alive on day 12], 4, 9, 26 [4 of 5 alive on day 12], 32, 49 % of control and the T/C (dose: 27.0 mg/kg/injection, vehicle: saline + alcohol) was -41, -15, 13, 15, 45 [5 of 6 alive on day 12], 50 % of control.
In the case of `COc1ccc2oc3c(ccc[n+]3C)c(=O)c2c1`, the survivor count (dose: 800.0 mg/kg/injection, vehicle: saline with Tween-80) is reported as 3 of 6 on day 12.
With `Cc1cccc(OCC(O)CN2CC2)c1` (configuration not stated) the survivor count (dose: 400.0 mg/kg/injection, vehicle: saline with Tween-80) was 0 of 6 on day 12.
In the case of `CCOc1ccc(C(C)c2cc3c(cc2OC)OCO3)cc1` (configuration not stated), the survivor count (dose: 800.0 mg/kg/injection, vehicle: distilled water + Tween-80) is reported as 1 of 6 on day 12.
`O=C(O)c1cc(C(=O)O)c(C(=O)O)cc1C(=O)O.[NH2-].[NH2-].[NH2-].[NH2-].[Pt+2].[Pt+2]` was tested, and the T/C (dose: 25.0 mg/kg/injection, vehicle: water) was 128 % of control, the survivor count (dose: 50.0 mg/kg/injection, vehicle: water) was 3 of 6 on day 12 and the T/C (dose: 100.0 mg/kg/injection, vehicle: water) was 144 % of control [5 of 6 alive on day 12].
With `CN(C)/N=N/c1nc[nH]c1C(N)=O` the T/C [6] was 32, 74 [5 of 6 alive on day 12], 97, 123 % of control, the T/C (dose: 150.0 mg/kg/injection, vehicle: Klucel (hydroxypropylcellulose) (HPC)) was 25, 26, 100, 122 % of control and the T/C (dose: 225.0 mg/kg/injection, vehicle: Klucel (hydroxypropylcellulose) (HPC)) was 28, 47, 58, 76 % of control.
With `CN(C)C(=O)Nc1ccc(Cl)cc1` the survivor count (dose: 1200.0 mg/kg/injection, vehicle: suspension in saline) was 0 of 6 on day 12.
In the case of `O=C([O][Bi]([c]1ccccc1)[c]1ccccc1)c1ccccc1`, the T/C [6] is reported as 145 % of control.
In the case of `CC1/C=C/C=C/CC/C=C/C=C/C=C/C=C/C(OC2OC(C)C(O)C(N)C2O)CC2OC(CC(O)C(O)CCC(O)CC(O)CC(O)CC(=O)OC(C)C(C)C1O)CC(O)C2C(=O)O` (configuration not stated), the survivor count (dose: 200.0 mg/kg/injection, vehicle: saline with Tween-80) is reported as 3 of 5 on day 12.
`COc1cc(C)c(C2NC(=O)c3ccccc3N2)cc1C` (configuration not stated) was tested, and the T/C (dose: 216.0 mg/kg/injection, vehicle: Klucel (hydroxypropylcellulose) (HPC)) was 131 % of control.
`COc1ccc2oc(-c3ccc(Cl)cc3)c(N3CCN(C)CC3)c2c1` was tested, and the survivor count [7] was 2 of 6 on day 12 and the survivor count (dose: 600.0 mg/kg/injection, vehicle: saline) was 0 of 6 on day 12.
In the case of `COC1=C(OC)C(=O)C(N(C)C)=C(CO)C1=O`, the T/C (dose: 200.0 mg/kg/injection, vehicle: saline) is reported as 147 % of control [5 of 6 alive on day 12] and the survivor count [3] is reported as 0 of 6 on day 12.
In the case of `CCCCCCCCCCCCN1C(C)=CS/C1=C\C=C\c1scc(C)[n+]1CCCCCCCCCCCC`, the survivor count (dose: 6.0 mg/kg/injection, vehicle: saline with Tween-80) is reported as 2 of 6 on day 12, the survivor count (dose: 12.0 mg/kg/injection, vehicle: saline with Tween-80) is reported as 0 of 6 on day 12 and the survivor count (dose: 24.0 mg/kg/injection, vehicle: saline with Tween-80) is reported as 0 of 6 on day 12.
`O=C(/C=C/c1cccnc1)/C=C/c1cccnc1` was tested, and the T/C (dose: 25.0 mg/kg/injection, vehicle: Klucel (hydroxypropylcellulose) (HPC)) was 138 % of control, the survivor count [6] was 3 of 6 on day 12 and the survivor count (dose: 200.0 mg/kg/injection, vehicle: Klucel (hydroxypropylcellulose) (HPC)) was 0 of 6 on day 12. The survivor count (dose: 400.0 mg/kg/injection, vehicle: Klucel (hydroxypropylcellulose) (HPC)) was 0 of 6 on day 12.
In the case of `[Cl][Pt][Cl].[NH-]C(CO)C(=O)O` (configuration not stated), the T/C (dose: 18.75 mg/kg/injection, vehicle: water) is reported as 131 % of control.
`CN(C)N=Nc1ccc(C(N)=O)cc1` was tested, and the survivor count [4] was 0 of 6 on day 12.
In the case of `COC1CC2C=C(C)/C=C/C=C/C(=O)NC(c3ccccc3)C/C=C/CCC(O)CC(=O)C2=C1O` (configuration not stated), the survivor count (dose: 300.0 mg/kg/injection, vehicle: Klucel (hydroxypropylcellulose) (HPC)) is reported as 0 of 6 on day 12.
With `CCCCCCCCCCCCCCCCCCOCC(CO)OC` (configuration not stated) the survivor count [4] was 3 of 6 on day 12 and the survivor count [5] was 1 of 6 on day 12 and 3 of 5 on day 12.
In the case of `Cn1c(=S)sc2nc3ccccc3n2c1=S`, the survivor count (dose: 240.0 mg/kg/injection, vehicle: saline with Tween-80) is reported as 1 of 5 on day 12 and the survivor count (dose: 480.0 mg/kg/injection, vehicle: saline with Tween-80) is reported as 1 of 6 on day 12.
For `NNC(=O)c1ccncc1`, the survivor count [7] was 0 of 6 on day 12.
For `Nc1ccn([C@@H](C=O)C[C@@H](C=O)CO)c(=O)n1`, the T/C (dose: 150.0 mg/kg/injection, vehicle: saline with Tween-80) was 141 % of control.
`CC(O)CCC(=O)c1ccoc1` (configuration not stated) was tested, and the T/C (dose: 13.5 mg/kg/injection, vehicle: saline) was 125 % of control and the T/C (dose: 18.0 mg/kg/injection, vehicle: saline) was 130 % of control.
